{
  "sequences": {"note": "Amino acid sequences for entries named in this document (tags omitted). Residues count along the entry.", "UniProt O75197, residues 32-1615": "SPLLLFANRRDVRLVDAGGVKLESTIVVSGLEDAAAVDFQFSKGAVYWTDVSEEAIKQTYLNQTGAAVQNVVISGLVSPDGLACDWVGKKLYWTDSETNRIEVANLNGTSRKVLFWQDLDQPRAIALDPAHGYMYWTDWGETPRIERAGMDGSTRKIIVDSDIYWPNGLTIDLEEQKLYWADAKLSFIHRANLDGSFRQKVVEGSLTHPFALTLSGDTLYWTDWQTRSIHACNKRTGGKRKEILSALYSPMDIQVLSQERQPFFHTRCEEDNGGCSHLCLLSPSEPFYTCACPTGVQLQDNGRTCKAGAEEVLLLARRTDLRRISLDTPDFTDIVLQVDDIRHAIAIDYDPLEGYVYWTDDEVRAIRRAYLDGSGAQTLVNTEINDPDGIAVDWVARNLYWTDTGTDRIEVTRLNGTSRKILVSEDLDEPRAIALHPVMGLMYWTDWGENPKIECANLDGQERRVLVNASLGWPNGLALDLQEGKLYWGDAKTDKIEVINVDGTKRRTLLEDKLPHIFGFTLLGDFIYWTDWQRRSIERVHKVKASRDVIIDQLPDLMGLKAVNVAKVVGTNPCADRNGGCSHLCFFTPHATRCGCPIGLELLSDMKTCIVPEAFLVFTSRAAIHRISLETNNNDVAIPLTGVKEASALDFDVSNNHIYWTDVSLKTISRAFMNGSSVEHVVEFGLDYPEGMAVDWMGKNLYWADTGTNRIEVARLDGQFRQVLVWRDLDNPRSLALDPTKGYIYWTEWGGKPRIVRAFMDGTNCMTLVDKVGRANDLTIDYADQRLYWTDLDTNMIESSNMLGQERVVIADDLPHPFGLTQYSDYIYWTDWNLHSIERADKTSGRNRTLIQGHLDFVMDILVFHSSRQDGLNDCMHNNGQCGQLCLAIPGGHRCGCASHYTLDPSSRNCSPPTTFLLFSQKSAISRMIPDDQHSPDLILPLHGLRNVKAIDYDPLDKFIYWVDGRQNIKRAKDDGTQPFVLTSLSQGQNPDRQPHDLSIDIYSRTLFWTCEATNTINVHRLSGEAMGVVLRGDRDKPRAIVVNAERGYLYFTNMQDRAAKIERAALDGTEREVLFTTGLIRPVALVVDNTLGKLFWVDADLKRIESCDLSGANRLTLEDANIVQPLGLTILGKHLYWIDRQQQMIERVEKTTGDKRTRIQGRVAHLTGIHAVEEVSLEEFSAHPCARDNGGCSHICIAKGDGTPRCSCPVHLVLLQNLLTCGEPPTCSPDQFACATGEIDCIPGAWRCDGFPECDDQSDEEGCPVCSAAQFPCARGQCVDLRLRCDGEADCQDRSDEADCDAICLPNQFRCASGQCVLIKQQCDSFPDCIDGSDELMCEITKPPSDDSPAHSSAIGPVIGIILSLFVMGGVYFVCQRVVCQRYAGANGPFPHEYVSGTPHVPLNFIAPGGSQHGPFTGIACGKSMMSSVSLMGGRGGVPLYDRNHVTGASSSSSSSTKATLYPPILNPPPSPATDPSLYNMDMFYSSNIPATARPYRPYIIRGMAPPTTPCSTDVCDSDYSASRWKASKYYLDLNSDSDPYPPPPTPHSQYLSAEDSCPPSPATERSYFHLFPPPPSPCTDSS", "UniProt P37173, residues 23-567": "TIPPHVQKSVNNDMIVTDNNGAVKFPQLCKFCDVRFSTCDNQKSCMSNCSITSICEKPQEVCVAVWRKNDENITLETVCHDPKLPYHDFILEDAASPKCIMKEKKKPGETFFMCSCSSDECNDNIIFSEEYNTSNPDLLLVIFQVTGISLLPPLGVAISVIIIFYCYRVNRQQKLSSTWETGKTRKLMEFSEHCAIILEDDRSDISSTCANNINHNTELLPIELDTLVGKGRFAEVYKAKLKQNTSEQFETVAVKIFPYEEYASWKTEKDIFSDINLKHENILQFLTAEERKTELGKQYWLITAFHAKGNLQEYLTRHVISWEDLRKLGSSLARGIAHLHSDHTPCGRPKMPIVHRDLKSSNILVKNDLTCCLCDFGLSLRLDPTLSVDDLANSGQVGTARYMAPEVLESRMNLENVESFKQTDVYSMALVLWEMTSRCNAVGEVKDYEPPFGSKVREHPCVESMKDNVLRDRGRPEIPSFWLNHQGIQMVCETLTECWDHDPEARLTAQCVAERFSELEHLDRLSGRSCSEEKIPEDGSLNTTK"},
  "source": "paper PMC7188863",
  "key": {"[1]": {"biological_target": "low-density lipoprotein receptor-related protein 5 (LRP5), endogenous in HKC-8 cells (human (endogenous in HKC-8)) (UniProt O75197)", "assay": "co-IP; endogenous LRP5 precipitated with its specific antibody from HKC-8 cells in normal condition; blotted for TβRI, TβRII and LRP5"}, "[2]": {"biological_target": "LRP5 overexpressed in HKC-8 cells (no tag named) (UniProt O75197)", "assay": "co-IP; HKC-8 cells co-transfected with TβRII and LRP5 for 48 h, with or without 2 ng/ml TGF-β for 15 min; TβRII and LRP5 each precipitated with their specific antibodies; blotted for TβRII and LRP5"}, "[3]": {"biological_target": "T1, TβRI with His tag, expressed in HEK293A cells (UniProt P36897)", "T1 sequence": "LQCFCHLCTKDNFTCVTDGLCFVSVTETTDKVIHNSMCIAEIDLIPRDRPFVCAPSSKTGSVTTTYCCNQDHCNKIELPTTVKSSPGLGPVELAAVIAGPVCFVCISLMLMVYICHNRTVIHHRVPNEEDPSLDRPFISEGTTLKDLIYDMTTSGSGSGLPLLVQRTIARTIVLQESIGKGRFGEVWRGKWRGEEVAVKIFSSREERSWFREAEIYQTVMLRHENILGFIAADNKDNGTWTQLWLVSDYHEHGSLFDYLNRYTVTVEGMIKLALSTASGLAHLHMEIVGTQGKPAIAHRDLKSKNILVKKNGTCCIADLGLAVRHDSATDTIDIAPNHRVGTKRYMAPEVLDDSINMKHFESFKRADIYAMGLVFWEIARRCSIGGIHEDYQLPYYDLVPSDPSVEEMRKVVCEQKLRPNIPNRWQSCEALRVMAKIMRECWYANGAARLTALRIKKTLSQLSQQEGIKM", "assay": "co-IP; HEK293A cells co-transfected with TβRI-His and LRP5FL-Flag, LRP5∆N-Flag or LRP5∆C-Flag for 48 h; TβRI-His precipitated by Ni-NTA resin; blotted for His and Flag"}, "[4]": {"biological_target": "T1, TβRI with His tag, expressed in HEK293A cells", "assay": "co-IP; HEK293A cells co-transfected with TβRI-His and LRP5-Flag for 48 h, with or without 2 ng/ml TGF-β1 for 15 min; TβRI-His precipitated by Ni-NTA resin and LRP5-Flag by anti-Flag resin; blotted for His and Flag"}, "[5]": {"biological_target": "T2, TβRI with His tag, expressed in HKC-8 cells (UniProt P36897)", "T2 sequence": "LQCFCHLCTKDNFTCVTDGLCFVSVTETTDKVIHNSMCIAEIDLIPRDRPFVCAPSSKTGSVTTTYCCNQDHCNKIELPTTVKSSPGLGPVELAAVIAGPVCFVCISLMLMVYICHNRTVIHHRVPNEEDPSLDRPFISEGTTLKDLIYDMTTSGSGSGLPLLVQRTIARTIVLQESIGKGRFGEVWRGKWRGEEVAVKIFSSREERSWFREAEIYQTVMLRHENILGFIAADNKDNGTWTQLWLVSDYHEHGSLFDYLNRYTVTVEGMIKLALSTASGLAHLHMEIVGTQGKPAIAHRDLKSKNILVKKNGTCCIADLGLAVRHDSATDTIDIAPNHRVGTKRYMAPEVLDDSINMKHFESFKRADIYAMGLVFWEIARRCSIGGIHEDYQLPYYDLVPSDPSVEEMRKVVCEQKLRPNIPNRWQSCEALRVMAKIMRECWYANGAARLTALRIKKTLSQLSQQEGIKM", "assay": "co-IP; HKC-8 cells co-transfected with TβRI-His and LRP5-Flag or LDLR-Flag for 48 h, with or without 2 ng/ml TGF-β for 15 min; TβRI-His precipitated by Ni-NTA resin; blotted for His, Flag and TβRII"}},
  "note": "Results are given in words; binding and its absence hold for the method and conditions named. Binding seen in cells or lysates may run through a third protein. Some entries that bind do so weakly or less than the wild type. For part of these data: Tags and fused reporters may be left off the sequences shown.",
  "data": [
    {"molecule": "TGF-β receptor II (TβRII), endogenous in HKC-8 cells (from UniProt P37173 23-567)", "values": [
      {"measurement": "binding", "setting": "[1]", "value": "binds"}
    ]},
    {"molecule": "TβRII overexpressed in HKC-8 cells (from UniProt P37173 23-567) (receptor)", "values": [
      {"measurement": "binding", "setting": "[2]", "value": "binds"}
    ]},
    {"molecule": "full-length LRP5 with Flag tag, expressed in HEK293A cells (from UniProt O75197 32-1615) (receptor)", "values": [
      {"measurement": "binding", "setting": "[3]", "value": "binds"},
      {"measurement": "binding", "setting": "[4]", "value": "binds"}
    ]},
    {"molecule": "LRP5 with Flag tag, expressed in HKC-8 cells (from UniProt O75197 32-1615) (receptor)", "values": [
      {"measurement": "binding", "setting": "[5]", "value": "binds"}
    ]},
    {"molecule": "TGF-β receptor I (TβRI), endogenous in HKC-8 cells (receptor, UniProt P36897 34-503) LQCFCHLCTKDNFTCVTDGLCFVSVTETTDKVIHNSMCIAEIDLIPRDRPFVCAPSSKTGSVTTTYCCNQDHCNKIELPTTVKSSPGLGPVELAAVIAGPVCFVCISLMLMVYICHNRTVIHHRVPNEEDPSLDRPFISEGTTLKDLIYDMTTSGSGSGLPLLVQRTIARTIVLQESIGKGRFGEVWRGKWRGEEVAVKIFSSREERSWFREAEIYQTVMLRHENILGFIAADNKDNGTWTQLWLVSDYHEHGSLFDYLNRYTVTVEGMIKLALSTASGLAHLHMEIVGTQGKPAIAHRDLKSKNILVKKNGTCCIADLGLAVRHDSATDTIDIAPNHRVGTKRYMAPEVLDDSINMKHFESFKRADIYAMGLVFWEIARRCSIGGIHEDYQLPYYDLVPSDPSVEEMRKVVCEQKLRPNIPNRWQSCEALRVMAKIMRECWYANGAARLTALRIKKTLSQLSQQEGIKM", "values": [
      {"measurement": "binding", "setting": "[1]", "value": "binds"}
    ]}
  ]
}
